The exact form of at least one protein or probe is not confirmed. The comparison behind a weaker result is the experiment's own reference, which may not be listed here. At least one verdict rests on a figure or table, not on a statement of the authors.
System: LARP1 full length
Test: EMSA
Conditions: 20 mM Tris-HCl pH 8, 150 mM NaCl, 10% glycerol, 1 mM DTT, 1 ug BSA, 0.5 ug tRNA, RNA <2 nM, 30 min on ice, native PAGE at 4 C, recombinant protein, residues 1-1019, protein details: N-terminal 6xHis-MBP, removed by TEV cleavage; for Kd: tRNA and BSA present
[1] = judged non-specific, Kd only in figure, label: 5'-32P

Q: Does “GGAAGAGCCAUUCACUCCUGCCCCUGCCCACACGGCAGGUAGCAGGGGGAGUGCUGGUCACACCCCUGUGUGAUAUGUGAUGCCCUCGGCAAAGAAUCUACUGGAAUAGAUUCCGAGGAGCAGGAGUGCUCAAUAAAAUGUUGGUUUCCAGC [BIK 3' UTR construct 3]” bind [1]?
A: binds more weakly

Q: Does “CCUCUUUUCCGUGGCGCCUCGGAGGCGUUCAGCUGCUUCAAG [RPS6 5' UTR (5' TOP, 42mer)]” bind (prebound at 250 nM LARP1, probe of the competition assay, label: 5'-32P probe, unlabelled as competitor)?
A: binds

Q: How did the Kd (label: 5'-32P) turn out when “GCAGACACGAAGCCUCCCGGGUGGCUUACAGACGCUGCCAGCAUCGCCGCCGCCAGAGGAGA [BIK 5' UTR]” was run?
A: > 0.25 µM

Q: How did the Kd (label: 5'-32P) turn out when “GUCUGAAGUAAGACCCCUCUCCAGAGACAUCUUGAUGGAGACCCUCCUGUAUGAGCAGCUCCUGGAACCCCCGACCAUGGAGGUUCUUGGCAUGACUGACUCUGAAGAGGACCUGGACCCUAUGGAGGACUUCGAUUCUUUGGAAUGCAUGGAGGGCAGUGACGCAUUGGCCCUGCGGCUGGC [BIK CDS1]” was run?
A: > 0.25 µM

Q: Does “UGACCACUGCCCUGGAGGUGGCGGCCUGCUGCUGUUAUCUUUUUAACUGUUUUCUCAUGAUGCCUUUUUAUAUUUAAACCCCGAGAUAGUGCUGGAACACUGCUGAGGU [BIK 3' UTR construct 1]” bind [1]?
A: binds more weakly

Q: How did the Kd (label: 5'-32P in direct EMSA, unlabelled as competitor) turn out when “GGCCGCCUCGGGGCUGGGCAUCCGGCCCCUGGGGCCACCCCUUGUCAGCCGGGUGGGUAGGAACCGUAGACUCGCUCAUCUCGCCUGGGUUUGUCCGCAUGUUG [OAZ1 3' UTR]” was run?
A: > 0.25 µM

Q: With “GAGGACAUCAGGGAUGUUCUUAGAAGUUUCAUGGACGGUUUCACCACACUUAAGGAGAACAUAAUGAGGUUCUGGAGAUCCCCGAACCCCGGGUCCUGGGUGUCCUGCGAACAGGUGCUGCUGGCGCUGCUGCUGCUGCUGGCGCUGCUGCUGCCGCUGCUCAGCGGGGGCCUGCACCUGCUGCUC [BIK CDS2]” as the sequence, how does the Kd (label: 5'-32P) read?
A: > 0.25 µM

Q: Does “GUGCUGGAACACUGCUGAGGUUUUAUACUCAGGUUUUUUGUUUUUUUUUUAUUCCAGUUUUCGUUUUUUCUAAAAGAUGAAUUCCUAUGGCUCUGCAAUUGUCACCGGUUAACUGUGGCCUGUGCCCAGGAAGAGCCAUUCACUCC [BIK 3' UTR construct 2]” bind [1]?
A: binds more weakly

— PMC4756840
